{"source": "PubChem BioAssay AID1259425 – University of Nebraska Medical Center, 2018", "screen": "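Seek colon cancer weak points whose silencing resembles KSR1 loss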 (primary screen)", "cell system": "HCT116 human colon cancer cells", "knock-down reagent": "siRNA pool against human genes, 50 nM siRNA", "measurement": "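After 50 nM siRNA pool, branched-DNA assay measures six marker transcripts per well, minus blank, normalised to the geometric mean of two housekeeping transcripts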", "reading the numbers": "BNIP3L mRNA: higher = more BNIP3L transcript after knockdown; NDRG1 mRNA: higher = more NDRG1 transcript after knockdown", "note": "The whole screen tested about 14,000 reagents; shown is a part drawn at random. Some reagents were tested in more than one well and are listed for each. Not all columns of the deposit are shown. No sequences are given here. Not given: the time to read-out."}
{"target gene":"NCK2","BNIP3L mRNA, set 1":0.0853,"NDRG1 mRNA, set 1":0.523}
{"target gene":"SUMO3","BNIP3L mRNA, set 1":0.0976,"NDRG1 mRNA, set 1":0.151}
{"target gene":"TSKU","BNIP3L mRNA, set 1":0.286,"NDRG1 mRNA, set 1":0.387}
{"target gene":"ABI1","BNIP3L mRNA, set 1":0.221,"NDRG1 mRNA, set 1":0.215}
{"target gene":"IL10RA","BNIP3L mRNA, set 1":0.0853,"NDRG1 mRNA, set 1":1.3}
{"target gene":"ONECUT2","BNIP3L mRNA, set 1":0.127,"NDRG1 mRNA, set 1":0.217}
{"target gene":"ZMPSTE24","BNIP3L mRNA, set 1":0.0864,"NDRG1 mRNA, set 1":0.238}
{"target gene":"PAX8","BNIP3L mRNA, set 1":0.0603,"NDRG1 mRNA, set 1":0.745}
{"target gene":"LCN1","BNIP3L mRNA, set 1":0.0766,"NDRG1 mRNA, set 1":0.0879}
{"target gene":"CDIP1","BNIP3L mRNA, set 1":0.169,"NDRG1 mRNA, set 1":0.153}
{"target gene":"GRK1","BNIP3L mRNA, set 1":0.0651,"NDRG1 mRNA, set 1":0.0279}
{"target gene":"GRK1","BNIP3L mRNA, set 1":0.0883,"NDRG1 mRNA, set 1":0.112}
{"target gene":"MIIP","BNIP3L mRNA, set 1":0.0809,"NDRG1 mRNA, set 1":0.141}
{"target gene":"GPR146","BNIP3L mRNA, set 1":0.092,"NDRG1 mRNA, set 1":0.212}
{"target gene":"RPL23AP32","BNIP3L mRNA, set 1":0.495,"NDRG1 mRNA, set 1":0.388}
{"target gene":"NPHS2","BNIP3L mRNA, set 1":0.118,"NDRG1 mRNA, set 1":0.0923}

2 entries from above, ordered by “BNIP3L mRNA, set 1”, high to low:
{"target gene":"LCN1","BNIP3L mRNA, set 1":0.0766,"NDRG1 mRNA, set 1":0.0879}
{"target gene":"PAX8","BNIP3L mRNA, set 1":0.0603,"NDRG1 mRNA, set 1":0.745}

Continued.
{"target gene":"MAGEB3","BNIP3L mRNA, set 1":0.08,"NDRG1 mRNA, set 1":0.104}
{"target gene":"EXOSC5","BNIP3L mRNA, set 1":0.334,"NDRG1 mRNA, set 1":0.171}
{"target gene":"TSPAN2","BNIP3L mRNA, set 1":0.051,"NDRG1 mRNA, set 1":0.114}
{"target gene":"POMC","BNIP3L mRNA, set 1":0.12,"NDRG1 mRNA, set 1":0.287}
{"target gene":"COPZ2","BNIP3L mRNA, set 1":0.247,"NDRG1 mRNA, set 1":0.32}
{"target gene":"LGR5","BNIP3L mRNA, set 1":0.192,"NDRG1 mRNA, set 1":0.136}
{"target gene":"SLC4A5","BNIP3L mRNA, set 1":0.186,"NDRG1 mRNA, set 1":0.323}
{"target gene":"ONECUT1","BNIP3L mRNA, set 1":0.109,"NDRG1 mRNA, set 1":0.595}
{"target gene":"ITGA2","BNIP3L mRNA, set 1":0.0834,"NDRG1 mRNA, set 1":0.0279}
{"target gene":"HINFP","BNIP3L mRNA, set 1":0.0892,"NDRG1 mRNA, set 1":0.169}
{"target gene":"SLC19A3","BNIP3L mRNA, set 1":0.0763,"NDRG1 mRNA, set 1":0.221}
{"target gene":"NTRK2","BNIP3L mRNA, set 1":0.0708,"NDRG1 mRNA, set 1":0.137}
